According to patent US20220242969A1 (FREDAX, published 2022):
Results are given in words; binding and its absence hold for the method and conditions named. Some entries that bind do so weakly or less than the wild type.

By UniProt entry, the sequences of proteins in these tests, tags left out. Where a name states a change or a piece, a line headed by the entry shows the natural chain unless it says otherwise.
UniProt P07288: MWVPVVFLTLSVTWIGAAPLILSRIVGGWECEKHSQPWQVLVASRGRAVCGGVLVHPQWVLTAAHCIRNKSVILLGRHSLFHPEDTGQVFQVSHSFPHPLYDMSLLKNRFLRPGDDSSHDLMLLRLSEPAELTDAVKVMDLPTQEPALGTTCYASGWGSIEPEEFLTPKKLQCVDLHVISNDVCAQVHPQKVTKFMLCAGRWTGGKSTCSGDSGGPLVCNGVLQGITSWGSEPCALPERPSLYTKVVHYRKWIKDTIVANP

Molecular target: T1, prostate specific antigen (PSA) (human, UniProt P07288 25-261, limits assumed)
T1 construct: The antigen of the SPR study is only called 'PSA' (169 ug/ml, provided by Diaprost AB, Mw 30 000 Da); also called kallikrein III
Assay: SPR (Biacore), worded comparison with the parent murine antibody m5A10

B1: humanised monoclonal antibody 5A10 (h5A10) (antibody, human IgG1, kappa, V domains shown)
VH: QVTLKESGPALVKPTQTLTLTCTFSGFSLSTTGMGVSWIRQPPGKALEWLAHIYWDDDKRYSTSLKTRLTISEDSSKNQVVLTMTNMDPVDTATYYCARKGYYGYFDYWGQGTLVTVSS
VL: DIQMTQSPSSLSASVGDRVTVTCRASQNVNTDVAWYQQKPGKAPKALIFSTSYLQSGVPSRFSGSGSGTDFTLTISSLQPEDFATYYCQQYSNYPLTFGQGTKVEIKR
notes: also called hu5A10 (141203); h5A10 (141203)
With B1 as the binder, how does the binding read?
The binding was “binds”.
